For the test, the system named is P388 leukemia ip, CD2F1 mice, survival T/C. Description: NCI In Vivo Anticancer Drug Screen. Data for tumor model P388 Leukemia (intraperitoneal) in CD2F1 (CDF1) mice. Conditions: T/C endpoint: median survival time, higher T/C = longer survival.
[1] abbreviates: dose: 50.0 mg/kg/injection, schedule: Q01DX005 (ip), vehicle: Klucel (hydroxypropylcellulose) (HPC).
The mark [2] stands for this setting: dose: 100.0 mg/kg/injection, schedule: Q01DX005 (ip), vehicle: Klucel (hydroxypropylcellulose) (HPC).
Setting [3] is: dose: 60.0 mg/kg/injection, schedule: Q01DX005 (ip), vehicle: saline with Tween-80.
[4] abbreviates: dose: 120.0 mg/kg/injection, schedule: Q01DX005 (ip), vehicle: saline with Tween-80.
Setting [5] is: dose: 240.0 mg/kg/injection, schedule: Q01DX005 (ip), vehicle: saline with Tween-80.
The mark [6] stands for this setting: dose: 50.0 mg/kg/injection, schedule: Q04DX003 (ip), vehicle: saline with Tween-80.
The mark [7] stands for this setting: dose: 100.0 mg/kg/injection, schedule: Q04DX003 (ip), vehicle: saline with Tween-80.
Setting [8] is: dose: 200.0 mg/kg/injection, schedule: Q04DX003 (ip), vehicle: saline with Tween-80.
Where [9] appears, read: dose: 400.0 mg/kg/injection, schedule: Q04DX003 (ip), vehicle: saline with Tween-80.
[10] abbreviates: dose: 50.0 mg/kg/injection, schedule: Q01DX009 (ip), vehicle: Klucel (hydroxypropylcellulose) (HPC).
Where [11] appears, read: dose: 100.0 mg/kg/injection, schedule: Q01DX009 (ip), vehicle: Klucel (hydroxypropylcellulose) (HPC).
Setting [12] is: dose: 200.0 mg/kg/injection, schedule: Q01DX009 (ip), vehicle: Klucel (hydroxypropylcellulose) (HPC).

The list does not hold the whole screen: it covers a few groups of compounds. Other doses and runs of a compound may be missing. T/C is the treated group as % of the vehicle group. Some doses have a count of surviving animals in place of a T/C: the source holds a T/C of zero for them, seemingly a mark for toxic or unscored doses. Some doses without a T/C left all or most animals alive at the check, yet need not have been tolerated: survival well below the control is almost never listed, so the zero probably covers shortened survival too. Survivors were counted at the toxicity check, usually on the fifth day, unless a day is given; later deaths do not show. Schedules are NCI's codes, taken here to give the interval after Q, in days (D) or hours (H), and the number of doses after X. Where survival is the endpoint, this PubChem deposit counts one and a half times the control or more as active, and values a quarter to a half above the control carry no call in these data; other NCI protocols may use other cut-offs. Some doses were run more than once; the results are listed from low to high. Some entries show no survivor count and are marked so; the dose need not have been tolerated. Some T/C values carry the count of animals alive at the toxicity check (mostly the fifth day); where neither a count nor a note follows, no animal had died by that day.

On to `CC(C)OC(=O)N1N=C(OC(C)C)OP12=NC(c1ccccc1)=NN2C` (stereo not given), for which the T/C reads like this: under setting [1], 102 % of control; under setting [2], 102 % of control; (dose: 200.0 mg/kg/injection, schedule: Q01DX005 (ip), vehicle: Klucel (hydroxypropylcellulose) (HPC)) 102 % of control.
On to `NC1=NC(c2ccccc2[N+](=O)[O-])P(=O)(Nc2ncccn2)S1` (stereo not given), for which the T/C under setting [3] is 109 % of control, the T/C under setting [4] is 109 % of control and the T/C under setting [5] is 106 % of control.
Take `O=Cc1ccc(N(CCI)CCI)cc1`: the T/C is, setting by setting: (dose: 12.5 mg/kg/injection, schedule: Q04DX003 (ip), vehicle: saline with Tween-80) 120 % of control; (dose: 18.75 mg/kg/injection, schedule: Q01DX009 (ip), vehicle: saline with Tween-80) 172 % of control; (dose: 25.0 mg/kg/injection, schedule: Q04DX003 (ip), vehicle: saline with Tween-80) 120 % of control; (dose: 37.5 mg/kg/injection, schedule: Q01DX009 (ip), vehicle: saline with Tween-80) 236 % of control; under setting [6], 133 % of control; (dose: 75.0 mg/kg/injection, schedule: Q01DX009 (ip), vehicle: saline with Tween-80) 95 % of control. For the same compound, the T/C under setting [7] was 159 % of control; the T/C (dose: 132.0 mg/kg/injection, schedule: Q04DX003 (ip), vehicle: saline with Tween-80) is 129 % of control; the T/C under setting [8] was 129 and 163 % of control; the T/C (dose: 300.0 mg/kg/injection, schedule: Q04DX003 (ip), vehicle: saline with Tween-80) is 133 % of control [5 of 6 alive]; the T/C under setting [9] was 104 % of control.
Take `CC(C)OP(C)(=O)O.[Tb]`: the T/C reads like this: under setting [7], 97 % of control [survivor count not shown]; under setting [8], 100 % of control [survivor count not shown]; under setting [9], 100 % of control [survivor count not shown].
As to `NC1(C(=O)O)Cc2ccc(N(CCCl)CCCl)cc2C1` (stereo not given), the T/C runs as follows: (dose: 0.78 mg/kg/injection, schedule: Q04DX003 (ip), vehicle: Klucel (hydroxypropylcellulose) (HPC)) 178 % of control; (dose: 1.56 mg/kg/injection, schedule: Q04DX003 (ip), vehicle: Klucel (hydroxypropylcellulose) (HPC)) 130 and 190 % of control; (dose: 3.13 mg/kg/injection, schedule: Q04DX003 (ip), vehicle: Klucel (hydroxypropylcellulose) (HPC)) 201 and 237 % of control; (dose: 6.25 mg/kg/injection, schedule: Q04DX003 (ip), vehicle: Klucel (hydroxypropylcellulose) (HPC)) 195 and 299 % of control. Besides, the survivor count by setting is: (dose: 12.5 mg/kg/injection, schedule: Q04DX003 (ip), vehicle: Klucel (hydroxypropylcellulose) (HPC)) 6 of 6; (dose: 25.0 mg/kg/injection, schedule: Q04DX003 (ip), vehicle: Klucel (hydroxypropylcellulose) (HPC)) 4 of 6; (dose: 50.0 mg/kg/injection, schedule: Q04DX003 (ip), vehicle: Klucel (hydroxypropylcellulose) (HPC)) 4 of 6; (dose: 100.0 mg/kg/injection, schedule: Q04DX003 (ip), vehicle: Klucel (hydroxypropylcellulose) (HPC)) 6 of 6; (dose: 200.0 mg/kg/injection, schedule: Q04DX003 (ip), vehicle: Klucel (hydroxypropylcellulose) (HPC)) 4 of 6; (dose: 400.0 mg/kg/injection, schedule: Q04DX003 (ip), vehicle: Klucel (hydroxypropylcellulose) (HPC)) 4 of 6.
Turning to `F[P-](F)(F)(F)(F)F.c1ccc(C[S+]2CCCC2)cc1`, the T/C (dose: 7.5 mg/kg/injection, schedule: Q01DX005 (ip), vehicle: saline with Tween-80) was 102 % of control and the T/C (dose: 15.0 mg/kg/injection, schedule: Q01DX005 (ip), vehicle: saline with Tween-80) is 100 % of control. Further, the survivor count by setting is: (dose: 30.0 mg/kg/injection, schedule: Q01DX005 (ip), vehicle: saline with Tween-80) 2 of 6; under setting [3], 0 of 6; under setting [4], 0 of 6; under setting [5], 0 of 6.
On to `C1CN1.NC(CC(=O)O)C(=O)O.Nc1ncnc2nc[nH]c12`, for which the T/C was 107 % of control (dose: 100.0 mg/kg/injection, schedule: Q04DX003 (ip), vehicle: saline); 104 % of control (dose: 200.0 mg/kg/injection, schedule: Q04DX003 (ip), vehicle: saline); 100 % of control (dose: 400.0 mg/kg/injection, schedule: Q04DX003 (ip), vehicle: saline).
As to `O=P(N(CCCl)CCCl)(n1ccnc1)n1ccnc1`, the T/C was 105 % of control (dose: 25.0 mg/kg/injection, schedule: Q01DX009 (ip), vehicle: saline); 102 and 130 % of control (dose: 50.0 mg/kg/injection, schedule: Q01DX009 (ip), vehicle: saline); 120 and 181 % of control (dose: 100.0 mg/kg/injection, schedule: Q01DX009 (ip), vehicle: saline); 112 and 209 % of control (dose: 200.0 mg/kg/injection, schedule: Q01DX009 (ip), vehicle: saline). Moreover, the survivor count (dose: 400.0 mg/kg/injection, schedule: Q01DX009 (ip), vehicle: saline) was 6 of 6.
With `CC1COP(N(C)C)O1` (stereo not given), the T/C is 110 % of control under setting [6], 110 % of control under setting [7], 100 % of control under setting [8] and 100 % of control under setting [9].
With `CO/C(N)=N\P(=O)(Oc1ccccc1)Oc1ccccc1`, the T/C is, setting by setting: under setting [10], 104 % of control; under setting [11], 101 % of control [5 of 6 alive]; under setting [12], 100 % of control.
With `ICCN(CCI)c1ccccc1-c1ccccc1`, the T/C runs as follows: (dose: 12.5 mg/kg/injection, schedule: Q01DX009 (ip), vehicle: Klucel (hydroxypropylcellulose) (HPC)) 118 % of control [5 of 6 alive]; (dose: 25.0 mg/kg/injection, schedule: Q01DX009 (ip), vehicle: Klucel (hydroxypropylcellulose) (HPC)) 120 % of control [5 of 6 alive]; under setting [10], 145 % of control; under setting [11], 142 % of control; under setting [12], 160 % of control.
Take `O=[N+]([O-])c1cc([N+](=O)[O-])c([O-])c([N+](=O)[O-])c1.c1ccc(-c2ccc3c[n+]4ccccc4cc3c2)cc1`: the T/C runs as follows: (dose: 12.5 mg/kg/injection, schedule: Q01DX005 (ip), vehicle: Klucel (hydroxypropylcellulose) (HPC)) 97 % of control; (dose: 25.0 mg/kg/injection, schedule: Q01DX005 (ip), vehicle: Klucel (hydroxypropylcellulose) (HPC)) 97 % of control; under setting [1], 94 % of control; under setting [2], 103 % of control.
`CC(C)OP(C)(=O)O.[Fe]`: the T/C reads like this: under setting [7], 97 % of control [survivor count not shown]; under setting [8], 97 % of control [survivor count not shown]; under setting [9], 91 % of control [survivor count not shown].
Regarding `ClCCN(CCCl)c1ccc(CN2CCCCC2)cc1.O=[N+]([O-])c1cc([N+](=O)[O-])c(O)c([N+](=O)[O-])c1`, the T/C was 104 % of control (dose: 10.0 mg/kg/injection, schedule: Q01DX009 (ip), vehicle: saline with Tween-80); 106 % of control (dose: 20.0 mg/kg/injection, schedule: Q01DX009 (ip), vehicle: saline with Tween-80); 118 % of control (dose: 25.0 mg/kg/injection, schedule: Q01DX009 (ip), vehicle: saline with Tween-80); 131 % of control (dose: 40.0 mg/kg/injection, schedule: Q01DX009 (ip), vehicle: saline with Tween-80); 125 % of control (dose: 50.0 mg/kg/injection, schedule: Q01DX009 (ip), vehicle: saline with Tween-80); 136 % of control (dose: 80.0 mg/kg/injection, schedule: Q01DX009 (ip), vehicle: saline with Tween-80). For the same compound, under “dose: 100.0 mg/kg/injection, schedule: Q01DX009 (ip), vehicle: saline with Tween-80”, the T/C is 132 % of control.

(Values after PubChem BioAssay AID330 (DTP/NCI, 2004).)
